This is an account of results in publication doi:10.1101/2021.10.13.464316 (bioRxiv, 2021).

Chains of the proteins cited; added tags and fusions are not shown. Lines headed by an entry give the natural chain unless they say otherwise; changes in a name come on top.
UniProt Q9FID6: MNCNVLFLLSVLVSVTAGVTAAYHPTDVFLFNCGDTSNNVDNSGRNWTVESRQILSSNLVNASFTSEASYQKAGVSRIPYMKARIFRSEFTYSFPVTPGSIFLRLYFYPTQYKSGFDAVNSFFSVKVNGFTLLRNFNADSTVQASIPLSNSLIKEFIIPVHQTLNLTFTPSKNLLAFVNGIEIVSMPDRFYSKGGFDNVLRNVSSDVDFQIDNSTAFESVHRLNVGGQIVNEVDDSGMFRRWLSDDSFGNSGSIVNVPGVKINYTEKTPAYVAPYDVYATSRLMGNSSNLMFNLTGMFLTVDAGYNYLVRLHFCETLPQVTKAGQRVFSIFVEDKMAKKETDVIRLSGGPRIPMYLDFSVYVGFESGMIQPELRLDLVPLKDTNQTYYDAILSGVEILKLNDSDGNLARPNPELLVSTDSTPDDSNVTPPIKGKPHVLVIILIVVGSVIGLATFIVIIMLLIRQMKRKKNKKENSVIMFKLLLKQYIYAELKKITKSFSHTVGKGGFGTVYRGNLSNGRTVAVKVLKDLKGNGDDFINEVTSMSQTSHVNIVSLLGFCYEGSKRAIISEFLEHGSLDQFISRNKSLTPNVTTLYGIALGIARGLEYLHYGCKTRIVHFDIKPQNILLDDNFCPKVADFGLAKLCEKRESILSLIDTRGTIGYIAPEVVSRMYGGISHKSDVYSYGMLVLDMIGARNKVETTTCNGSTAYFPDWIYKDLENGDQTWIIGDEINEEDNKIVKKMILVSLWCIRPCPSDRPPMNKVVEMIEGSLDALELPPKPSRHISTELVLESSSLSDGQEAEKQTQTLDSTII
UniProt O80623: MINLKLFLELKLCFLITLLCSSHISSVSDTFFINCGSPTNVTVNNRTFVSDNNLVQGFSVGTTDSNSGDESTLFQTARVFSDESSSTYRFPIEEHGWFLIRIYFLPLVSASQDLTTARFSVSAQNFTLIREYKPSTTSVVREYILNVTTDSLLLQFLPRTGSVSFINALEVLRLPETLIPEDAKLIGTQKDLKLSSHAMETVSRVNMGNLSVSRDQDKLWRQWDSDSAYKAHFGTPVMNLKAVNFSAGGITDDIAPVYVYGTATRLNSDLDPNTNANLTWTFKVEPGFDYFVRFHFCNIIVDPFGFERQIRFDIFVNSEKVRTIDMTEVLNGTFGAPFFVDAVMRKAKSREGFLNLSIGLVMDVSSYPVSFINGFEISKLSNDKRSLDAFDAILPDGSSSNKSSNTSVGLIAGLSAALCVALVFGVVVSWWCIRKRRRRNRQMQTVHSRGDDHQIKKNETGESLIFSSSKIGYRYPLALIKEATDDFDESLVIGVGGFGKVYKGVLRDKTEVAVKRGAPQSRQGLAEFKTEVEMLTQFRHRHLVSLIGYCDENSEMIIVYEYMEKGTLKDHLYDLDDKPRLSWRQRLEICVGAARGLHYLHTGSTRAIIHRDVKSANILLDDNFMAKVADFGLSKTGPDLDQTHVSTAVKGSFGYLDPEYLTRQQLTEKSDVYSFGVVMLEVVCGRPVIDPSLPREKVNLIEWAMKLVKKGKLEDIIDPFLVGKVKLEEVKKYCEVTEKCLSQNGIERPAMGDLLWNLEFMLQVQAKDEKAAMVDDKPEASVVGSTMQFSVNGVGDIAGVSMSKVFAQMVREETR
UniProt Q9T020: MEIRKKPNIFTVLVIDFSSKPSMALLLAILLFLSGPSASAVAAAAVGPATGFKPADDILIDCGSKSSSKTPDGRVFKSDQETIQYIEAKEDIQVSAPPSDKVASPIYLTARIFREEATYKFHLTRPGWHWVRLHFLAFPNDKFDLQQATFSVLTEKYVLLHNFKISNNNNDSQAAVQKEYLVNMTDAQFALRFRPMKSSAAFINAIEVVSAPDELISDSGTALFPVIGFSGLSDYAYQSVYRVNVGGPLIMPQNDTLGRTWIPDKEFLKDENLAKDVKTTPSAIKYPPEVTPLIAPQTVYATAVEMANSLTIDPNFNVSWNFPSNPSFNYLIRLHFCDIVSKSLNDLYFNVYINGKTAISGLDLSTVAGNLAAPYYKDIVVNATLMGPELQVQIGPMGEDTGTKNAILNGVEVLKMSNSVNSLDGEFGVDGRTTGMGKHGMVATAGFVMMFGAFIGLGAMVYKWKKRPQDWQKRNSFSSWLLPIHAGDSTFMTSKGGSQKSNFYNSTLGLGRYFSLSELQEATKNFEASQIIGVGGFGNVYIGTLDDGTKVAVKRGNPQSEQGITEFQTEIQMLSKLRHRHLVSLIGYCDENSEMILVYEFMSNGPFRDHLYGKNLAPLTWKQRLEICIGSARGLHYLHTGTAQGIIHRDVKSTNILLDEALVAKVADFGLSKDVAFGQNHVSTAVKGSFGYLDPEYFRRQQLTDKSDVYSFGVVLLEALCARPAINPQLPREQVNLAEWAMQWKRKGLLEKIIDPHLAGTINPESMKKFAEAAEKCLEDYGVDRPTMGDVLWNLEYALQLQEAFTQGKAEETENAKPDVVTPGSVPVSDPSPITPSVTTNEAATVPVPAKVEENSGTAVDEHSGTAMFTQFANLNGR
UniProt Q9FID9: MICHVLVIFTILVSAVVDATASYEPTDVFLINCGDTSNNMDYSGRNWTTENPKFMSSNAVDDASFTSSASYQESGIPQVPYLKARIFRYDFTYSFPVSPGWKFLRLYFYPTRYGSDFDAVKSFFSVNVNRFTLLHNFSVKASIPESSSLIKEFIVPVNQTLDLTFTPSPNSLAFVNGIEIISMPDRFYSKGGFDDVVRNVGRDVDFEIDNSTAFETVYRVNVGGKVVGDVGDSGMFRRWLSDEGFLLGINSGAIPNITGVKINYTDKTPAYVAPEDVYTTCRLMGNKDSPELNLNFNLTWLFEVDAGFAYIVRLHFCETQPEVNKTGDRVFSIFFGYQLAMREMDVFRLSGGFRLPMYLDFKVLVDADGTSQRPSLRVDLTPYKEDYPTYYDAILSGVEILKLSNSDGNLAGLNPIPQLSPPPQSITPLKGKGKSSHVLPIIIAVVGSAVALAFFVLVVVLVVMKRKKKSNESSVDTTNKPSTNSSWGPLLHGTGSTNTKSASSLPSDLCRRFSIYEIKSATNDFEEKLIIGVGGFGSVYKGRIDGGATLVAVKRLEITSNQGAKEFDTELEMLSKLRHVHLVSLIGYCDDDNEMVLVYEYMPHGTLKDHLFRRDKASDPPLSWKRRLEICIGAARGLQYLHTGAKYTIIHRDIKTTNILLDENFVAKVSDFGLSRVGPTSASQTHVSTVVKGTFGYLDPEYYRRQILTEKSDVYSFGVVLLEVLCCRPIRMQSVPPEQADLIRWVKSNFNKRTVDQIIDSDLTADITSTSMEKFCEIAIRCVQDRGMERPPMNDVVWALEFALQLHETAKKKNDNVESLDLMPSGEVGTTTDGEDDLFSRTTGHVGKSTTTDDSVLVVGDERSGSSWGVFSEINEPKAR
UniProt Q9SA72: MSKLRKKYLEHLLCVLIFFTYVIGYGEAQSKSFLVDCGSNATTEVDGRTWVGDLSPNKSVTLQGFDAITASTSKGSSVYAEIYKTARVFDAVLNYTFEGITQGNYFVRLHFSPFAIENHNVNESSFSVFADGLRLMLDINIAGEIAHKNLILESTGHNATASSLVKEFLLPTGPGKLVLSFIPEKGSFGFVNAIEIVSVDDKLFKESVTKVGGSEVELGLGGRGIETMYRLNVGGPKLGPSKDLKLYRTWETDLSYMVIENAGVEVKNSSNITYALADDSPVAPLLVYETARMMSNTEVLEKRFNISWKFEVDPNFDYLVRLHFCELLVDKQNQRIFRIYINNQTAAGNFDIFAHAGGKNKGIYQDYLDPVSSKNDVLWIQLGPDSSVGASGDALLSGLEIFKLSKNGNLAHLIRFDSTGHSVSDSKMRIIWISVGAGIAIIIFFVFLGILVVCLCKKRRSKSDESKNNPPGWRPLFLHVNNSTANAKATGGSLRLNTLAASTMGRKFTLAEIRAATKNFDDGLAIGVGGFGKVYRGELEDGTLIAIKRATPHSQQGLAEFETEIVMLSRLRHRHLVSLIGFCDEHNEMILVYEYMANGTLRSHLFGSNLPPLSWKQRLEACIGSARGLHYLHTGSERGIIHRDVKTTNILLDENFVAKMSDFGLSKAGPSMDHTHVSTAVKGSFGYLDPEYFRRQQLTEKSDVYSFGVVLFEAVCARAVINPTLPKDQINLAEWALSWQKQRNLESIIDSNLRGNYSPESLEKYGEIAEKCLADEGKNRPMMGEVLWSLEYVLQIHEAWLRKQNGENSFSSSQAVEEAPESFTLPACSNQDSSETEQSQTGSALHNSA

Holding throughout (assay): two-hybrid
The target of experiment [1] is cytoplasmic domain of MDS3 fused to the GAL4 DNA-binding domain (Arabidopsis thaliana) (UniProt Q9FID6).
Experiment [2] concerns the target cytoplasmic domain of CVY1 fused to the GAL4 DNA-binding domain (Arabidopsis thaliana) (UniProt O80623).
Experiment [3] concerns the target cytoplasmic domain of BUPS1 fused to the GAL4 DNA-binding domain (Arabidopsis thaliana) (UniProt Q9T020).
The target of experiment [4] is cytoplasmic domain of MDS1 fused to the GAL4 DNA-binding domain (Arabidopsis thaliana) (UniProt Q9FID9).
In experiment [5] the target is cytoplasmic domain of HERK2 fused to the GAL4 DNA-binding domain (Arabidopsis thaliana) (UniProt Q9SA72).

These are yes or no findings as the source states them, for the method shown. For some assays here: A result given as binding can be weak or reduced; the word gives no strength. Sequences can lack the tags named with a protein.

B1: GST–CAR9 (natural protein)
chain: MEDKPLGILRVHVKRGINLAIRDATTSDPYVVITLANQKLKTRVINNNCNPVWNEQLTLSIKDVNDPIRLTVFDKDRFSGDDKMGDAEIDFRPFLEAHQMELDFQKLPNGCAIKRIRPGRTNCLAEESSITWSNGKIMQEMILRLKNVECGEVELMLEWTDGPGCKGLGREGSKKTPWMPTKRLD
As for B1, the binding entry in experiment [1] was “no binding”; in experiment [2], “no binding”; in experiment [3], “binds”; in experiment [4] it was “no binding”; in experiment [5], “no binding”.
